Some of the results follow.
The targets below were run with c1cn2cc(-c3ccc4cn[nH]c4c3)nc(Nc3ccc(N4CCOCC4)cc3)c2n1 [entospletinib] (assay: log2 fold change, soluble protein after heating vs DMSO (PISA); higher = thermal stabilisation; K562 cells, 10 uM, 30 min; active = over 0.2 and 3.5 SD of the protein, either way, in both replicates (recomputed)).
Summary of the method: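 Thermal stability values are relative to control samples and come from duplicates. They are expressed as log2 fold changes. For measurement, K562 cells (2×10^6 cells/mL) received 10 μM compound for 30 min, and aliquots were heated for 3 min over 48°C-58°C, pooled, and extracted at 4°C in PBS with 0.5% NP-40. Soluble protein, the supernatant after 21,000xg for 90 min, was quantified by TMTpro 16plex LC-MS/MS with equalised channel sums.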

Chains of the proteins cited; added tags and fusions are not shown. Lines headed by an entry give the natural chain unless they say otherwise; changes in a name come on top.
UniProt Q9ULJ1: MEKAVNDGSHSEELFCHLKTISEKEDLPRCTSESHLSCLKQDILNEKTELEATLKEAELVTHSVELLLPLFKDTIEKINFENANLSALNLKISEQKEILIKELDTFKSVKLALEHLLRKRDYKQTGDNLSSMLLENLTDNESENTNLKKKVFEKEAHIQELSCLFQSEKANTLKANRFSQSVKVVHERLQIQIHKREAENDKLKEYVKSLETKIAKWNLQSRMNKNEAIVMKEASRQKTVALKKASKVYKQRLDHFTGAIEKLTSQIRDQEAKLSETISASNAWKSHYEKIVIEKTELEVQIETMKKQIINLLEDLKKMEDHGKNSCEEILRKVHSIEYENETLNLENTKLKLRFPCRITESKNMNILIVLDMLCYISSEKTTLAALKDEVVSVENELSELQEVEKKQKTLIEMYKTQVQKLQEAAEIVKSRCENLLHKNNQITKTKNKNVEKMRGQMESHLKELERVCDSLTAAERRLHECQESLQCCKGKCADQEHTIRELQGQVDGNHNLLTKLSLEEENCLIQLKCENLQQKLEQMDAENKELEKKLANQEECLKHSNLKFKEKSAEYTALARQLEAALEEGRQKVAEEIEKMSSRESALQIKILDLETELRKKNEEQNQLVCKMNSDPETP
UniProt Q01968: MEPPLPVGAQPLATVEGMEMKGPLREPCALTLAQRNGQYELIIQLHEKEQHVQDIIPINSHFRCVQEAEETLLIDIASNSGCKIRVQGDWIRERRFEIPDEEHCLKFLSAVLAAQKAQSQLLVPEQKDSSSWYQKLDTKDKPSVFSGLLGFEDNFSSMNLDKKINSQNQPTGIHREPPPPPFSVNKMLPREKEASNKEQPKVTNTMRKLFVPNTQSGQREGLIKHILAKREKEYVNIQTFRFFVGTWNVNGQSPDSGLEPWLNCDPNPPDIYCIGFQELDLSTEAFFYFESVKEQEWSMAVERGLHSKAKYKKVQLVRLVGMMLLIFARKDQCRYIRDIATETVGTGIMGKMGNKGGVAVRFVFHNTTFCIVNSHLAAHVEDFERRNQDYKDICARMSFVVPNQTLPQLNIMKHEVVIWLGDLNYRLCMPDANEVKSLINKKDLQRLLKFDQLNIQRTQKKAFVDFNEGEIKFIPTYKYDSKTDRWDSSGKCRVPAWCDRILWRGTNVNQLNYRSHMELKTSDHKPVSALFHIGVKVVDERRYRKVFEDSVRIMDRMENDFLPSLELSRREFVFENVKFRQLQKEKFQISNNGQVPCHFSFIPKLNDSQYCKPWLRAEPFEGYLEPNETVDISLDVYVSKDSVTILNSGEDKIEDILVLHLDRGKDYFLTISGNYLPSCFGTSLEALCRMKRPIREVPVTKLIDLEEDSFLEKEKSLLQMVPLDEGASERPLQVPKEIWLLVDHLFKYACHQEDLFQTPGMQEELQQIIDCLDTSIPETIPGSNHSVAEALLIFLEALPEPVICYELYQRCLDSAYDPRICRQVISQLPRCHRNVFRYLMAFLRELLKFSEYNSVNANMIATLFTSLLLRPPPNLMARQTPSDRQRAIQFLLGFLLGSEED
UniProt Q9BZF3: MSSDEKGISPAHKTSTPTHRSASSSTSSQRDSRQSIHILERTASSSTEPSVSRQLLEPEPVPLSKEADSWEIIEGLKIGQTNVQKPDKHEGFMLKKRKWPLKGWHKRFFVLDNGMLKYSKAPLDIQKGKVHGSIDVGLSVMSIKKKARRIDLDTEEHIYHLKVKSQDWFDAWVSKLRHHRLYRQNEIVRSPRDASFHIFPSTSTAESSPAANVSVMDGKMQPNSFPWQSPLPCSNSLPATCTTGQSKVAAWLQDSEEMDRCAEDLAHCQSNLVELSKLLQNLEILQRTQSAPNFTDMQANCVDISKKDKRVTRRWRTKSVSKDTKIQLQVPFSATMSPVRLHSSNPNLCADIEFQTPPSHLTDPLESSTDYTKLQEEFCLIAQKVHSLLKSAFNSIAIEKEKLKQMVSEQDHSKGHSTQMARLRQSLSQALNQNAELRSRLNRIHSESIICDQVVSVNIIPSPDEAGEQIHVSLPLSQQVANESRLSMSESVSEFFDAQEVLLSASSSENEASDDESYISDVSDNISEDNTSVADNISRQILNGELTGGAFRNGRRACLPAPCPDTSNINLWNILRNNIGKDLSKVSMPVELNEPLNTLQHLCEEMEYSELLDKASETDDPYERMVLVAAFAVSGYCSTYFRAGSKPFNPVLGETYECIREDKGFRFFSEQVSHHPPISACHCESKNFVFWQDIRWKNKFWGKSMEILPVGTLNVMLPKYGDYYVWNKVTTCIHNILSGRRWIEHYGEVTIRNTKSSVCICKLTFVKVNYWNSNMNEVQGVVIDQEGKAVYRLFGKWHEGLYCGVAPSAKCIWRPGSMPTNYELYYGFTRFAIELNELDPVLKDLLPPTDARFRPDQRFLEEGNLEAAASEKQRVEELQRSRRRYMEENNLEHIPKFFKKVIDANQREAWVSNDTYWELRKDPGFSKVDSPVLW
UniProt P00480: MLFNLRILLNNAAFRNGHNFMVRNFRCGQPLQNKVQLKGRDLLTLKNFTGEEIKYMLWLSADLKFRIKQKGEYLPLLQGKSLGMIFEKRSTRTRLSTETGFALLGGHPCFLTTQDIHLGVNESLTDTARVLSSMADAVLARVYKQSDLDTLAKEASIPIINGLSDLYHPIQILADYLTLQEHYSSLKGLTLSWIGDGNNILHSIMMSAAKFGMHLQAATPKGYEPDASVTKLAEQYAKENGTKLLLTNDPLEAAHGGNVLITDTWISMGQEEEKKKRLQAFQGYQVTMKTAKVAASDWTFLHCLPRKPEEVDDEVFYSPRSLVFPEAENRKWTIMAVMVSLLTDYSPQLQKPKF
UniProt Q8NFH3: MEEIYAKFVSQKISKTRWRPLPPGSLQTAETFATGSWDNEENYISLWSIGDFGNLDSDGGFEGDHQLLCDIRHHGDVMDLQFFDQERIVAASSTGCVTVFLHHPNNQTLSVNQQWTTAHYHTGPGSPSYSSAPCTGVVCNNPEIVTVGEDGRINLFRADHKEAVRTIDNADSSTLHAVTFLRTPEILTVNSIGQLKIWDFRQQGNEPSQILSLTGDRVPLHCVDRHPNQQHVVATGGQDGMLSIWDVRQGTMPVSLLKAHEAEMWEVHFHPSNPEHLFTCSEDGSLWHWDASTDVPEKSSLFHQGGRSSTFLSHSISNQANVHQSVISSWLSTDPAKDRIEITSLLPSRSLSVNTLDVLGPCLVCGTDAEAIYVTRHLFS
UniProt Q9H857: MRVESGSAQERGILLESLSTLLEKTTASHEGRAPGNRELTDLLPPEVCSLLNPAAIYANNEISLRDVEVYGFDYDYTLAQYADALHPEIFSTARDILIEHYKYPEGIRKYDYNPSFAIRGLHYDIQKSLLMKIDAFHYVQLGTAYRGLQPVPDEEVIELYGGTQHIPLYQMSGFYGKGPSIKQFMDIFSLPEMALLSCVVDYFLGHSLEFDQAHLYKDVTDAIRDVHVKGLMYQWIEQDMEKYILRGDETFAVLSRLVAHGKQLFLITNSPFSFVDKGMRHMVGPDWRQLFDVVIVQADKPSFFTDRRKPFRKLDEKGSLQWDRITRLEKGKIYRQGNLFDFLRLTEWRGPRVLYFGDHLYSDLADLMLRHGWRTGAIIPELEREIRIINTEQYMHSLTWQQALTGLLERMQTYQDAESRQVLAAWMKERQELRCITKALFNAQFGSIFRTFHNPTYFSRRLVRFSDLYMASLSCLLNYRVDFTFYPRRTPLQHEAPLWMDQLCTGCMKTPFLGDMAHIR
UniProt Q8NFH4: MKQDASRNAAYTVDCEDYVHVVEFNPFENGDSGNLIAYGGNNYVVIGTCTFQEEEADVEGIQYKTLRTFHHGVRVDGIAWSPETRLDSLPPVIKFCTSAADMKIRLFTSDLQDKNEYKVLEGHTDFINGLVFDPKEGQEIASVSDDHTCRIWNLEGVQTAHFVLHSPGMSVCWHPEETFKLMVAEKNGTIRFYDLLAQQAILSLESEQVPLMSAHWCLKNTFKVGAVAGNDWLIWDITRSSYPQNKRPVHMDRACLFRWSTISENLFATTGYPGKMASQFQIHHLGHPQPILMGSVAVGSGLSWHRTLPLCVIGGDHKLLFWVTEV
UniProt Q32P28: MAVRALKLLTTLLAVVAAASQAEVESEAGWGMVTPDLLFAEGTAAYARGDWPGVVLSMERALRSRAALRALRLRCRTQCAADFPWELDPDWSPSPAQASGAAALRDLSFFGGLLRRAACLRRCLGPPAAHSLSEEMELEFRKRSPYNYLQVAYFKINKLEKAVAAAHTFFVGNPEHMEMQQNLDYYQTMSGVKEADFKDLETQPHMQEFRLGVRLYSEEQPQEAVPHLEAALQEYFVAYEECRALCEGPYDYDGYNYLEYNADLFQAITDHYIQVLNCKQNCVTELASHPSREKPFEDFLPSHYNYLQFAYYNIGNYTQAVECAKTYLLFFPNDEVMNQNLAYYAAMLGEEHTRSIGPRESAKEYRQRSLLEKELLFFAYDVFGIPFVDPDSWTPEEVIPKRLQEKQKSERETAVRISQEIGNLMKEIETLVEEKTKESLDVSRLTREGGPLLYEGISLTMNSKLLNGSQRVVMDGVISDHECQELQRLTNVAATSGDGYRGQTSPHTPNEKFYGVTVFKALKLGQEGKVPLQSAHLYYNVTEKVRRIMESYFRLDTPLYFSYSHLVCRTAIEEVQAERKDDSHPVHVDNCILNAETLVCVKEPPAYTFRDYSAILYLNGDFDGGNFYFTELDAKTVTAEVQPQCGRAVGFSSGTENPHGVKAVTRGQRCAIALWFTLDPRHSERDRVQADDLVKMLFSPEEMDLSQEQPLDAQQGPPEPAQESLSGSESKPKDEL
UniProt O43482, whole entry, looked up: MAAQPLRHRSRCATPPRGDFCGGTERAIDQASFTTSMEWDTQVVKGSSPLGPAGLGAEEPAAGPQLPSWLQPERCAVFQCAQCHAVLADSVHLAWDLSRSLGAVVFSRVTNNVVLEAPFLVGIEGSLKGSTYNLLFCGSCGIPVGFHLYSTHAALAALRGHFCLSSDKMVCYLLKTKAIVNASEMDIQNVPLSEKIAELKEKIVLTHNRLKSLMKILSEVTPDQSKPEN
UniProt Q7Z3B4: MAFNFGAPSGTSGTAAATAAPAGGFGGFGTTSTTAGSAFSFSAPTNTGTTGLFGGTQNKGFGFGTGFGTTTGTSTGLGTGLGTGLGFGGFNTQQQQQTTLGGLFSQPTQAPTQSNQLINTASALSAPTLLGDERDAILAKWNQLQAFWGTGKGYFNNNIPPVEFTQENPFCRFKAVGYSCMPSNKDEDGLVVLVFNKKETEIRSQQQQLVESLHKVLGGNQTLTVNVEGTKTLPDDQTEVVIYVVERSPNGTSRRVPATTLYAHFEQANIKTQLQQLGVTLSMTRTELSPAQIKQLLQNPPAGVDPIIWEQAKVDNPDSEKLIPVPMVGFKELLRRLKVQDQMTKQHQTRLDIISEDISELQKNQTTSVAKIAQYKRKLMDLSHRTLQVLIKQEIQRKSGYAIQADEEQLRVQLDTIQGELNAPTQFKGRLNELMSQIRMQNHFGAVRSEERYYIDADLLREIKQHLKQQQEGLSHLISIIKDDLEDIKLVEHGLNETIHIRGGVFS
UniProt Q9NX40: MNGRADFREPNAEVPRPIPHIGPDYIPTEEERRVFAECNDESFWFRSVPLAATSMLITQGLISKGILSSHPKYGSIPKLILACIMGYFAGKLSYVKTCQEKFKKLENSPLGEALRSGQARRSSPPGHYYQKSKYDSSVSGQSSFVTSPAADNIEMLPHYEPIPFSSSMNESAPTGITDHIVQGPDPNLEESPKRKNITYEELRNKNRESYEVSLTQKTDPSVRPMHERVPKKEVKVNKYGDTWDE
UniProt P13674: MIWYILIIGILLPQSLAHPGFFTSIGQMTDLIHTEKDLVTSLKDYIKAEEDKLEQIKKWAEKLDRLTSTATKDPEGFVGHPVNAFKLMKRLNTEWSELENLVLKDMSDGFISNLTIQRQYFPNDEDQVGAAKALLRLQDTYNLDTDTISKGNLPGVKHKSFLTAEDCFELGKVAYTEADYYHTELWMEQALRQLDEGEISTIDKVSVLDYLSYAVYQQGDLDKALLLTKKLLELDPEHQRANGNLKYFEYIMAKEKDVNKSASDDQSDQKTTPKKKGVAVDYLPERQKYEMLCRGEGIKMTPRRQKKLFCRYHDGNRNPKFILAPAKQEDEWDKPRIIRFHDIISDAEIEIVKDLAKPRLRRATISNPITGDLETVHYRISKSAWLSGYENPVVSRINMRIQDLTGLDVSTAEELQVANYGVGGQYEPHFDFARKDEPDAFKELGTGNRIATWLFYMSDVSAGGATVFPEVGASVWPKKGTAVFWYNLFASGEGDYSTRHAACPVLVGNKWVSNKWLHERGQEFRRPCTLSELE
UniProt Q8TCD5: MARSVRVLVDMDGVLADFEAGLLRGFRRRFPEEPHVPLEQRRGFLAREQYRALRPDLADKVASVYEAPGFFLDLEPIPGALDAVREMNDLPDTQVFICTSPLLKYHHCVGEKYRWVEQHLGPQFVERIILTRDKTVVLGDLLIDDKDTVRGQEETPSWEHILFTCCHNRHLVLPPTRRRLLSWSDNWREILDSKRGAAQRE

log2 fold change, inactive:
ODF2L isoform 4 (UniProt Q9ULJ1) -0.143
OCRL (UniProt Q01968) 0.114
NT5C3A (UniProt Q9H0P0) 0.084
NUP188 (UniProt Q5SRE5) -0.016
OSBPL6 isoform 5 (UniProt Q9BZF3) 0.052
NUDT18 (UniProt Q6ZVK8) -0.281
NUCB1 (UniProt Q02818) -0.013
OTC (UniProt P00480) 0.096
ORC6 (UniProt Q9Y5N6) -0.122
NUP43 (UniProt Q8NFH3) -0.031
NUP153 (UniProt P49790) 0.024
NT5DC2 isoform 2 (UniProt Q9H857) -0.026
NUP58 (UniProt Q9BVL2) -0.049
NUP37 (UniProt Q8NFH4) 0.016
P3H1 (UniProt Q32P28) 0.016
NSUN4 (UniProt Q96CB9) 0.041
OIP5 (UniProt O43482) 0.087
NUP54 (UniProt Q7Z3B4) -0.038
OCIAD1 (UniProt Q9NX40) -0.034
P4HA1 isoform 2 (UniProt P13674) 0.036
P4HA1 (UniProt P13674) 0.016
NT5C (UniProt Q8TCD5) -0.005
PABPC1 (UniProt P11940) 0.11

Taken from the results shown (six entries):
log2 fold change, inactive:
ORC6 (UniProt Q9Y5N6) -0.122
NUP43 (UniProt Q8NFH3) -0.031
NUP153 (UniProt P49790) 0.024
NT5DC2 isoform 2 (UniProt Q9H857) -0.026
NUP58 (UniProt Q9BVL2) -0.049
NUP37 (UniProt Q8NFH4) 0.016

From the supplement of paper PMC10849652
